Reference: US20220402908A1, “CXCR6 INHIBITORS AND METHODS OF USE” (Sanford Burnham Prebys Medical Discovery Institute, priority 2019, published 2022)
At least one compound was matched to its structure with a doubt left.

Tested on: SK-Hep-1 cancer xenograft
Assay: SK-Hep-1 cancer xenograft tumor growth
Type: in vivo
Conditions: compared to control; FIG. 1 legend

With `COc1cc(C(=O)N[C@@H]2C[C@H]3CCC[C@@H](C2)N3Cc2nc3c(C(F)(F)F)cccc3s2)cc(OC)c1OC` [Compound 1, 3,4,5-trimethoxy-N-((1R,3s,5S)-9-((4-(trifluoromethyl)benzo[d]thiazol-2-yl)methyl)-9-azabicyclo[3.3.1]nonan-3-yl)benzamide] the “tumor growth, SK-Hep-1 cancer xenograft” value was “tumor growth reduction”.
